# Measured values as given in the supplement of paper PMC8728848.
# The other results are listed elsewhere or left out.
# B1: Mermaid2 (Stilbonema majum) (protein)
# chain: MGSSHHHHHHSSGLVPRGSHMAASGWLRSPQGTVVKLYRRSLSWSKADEFCKDVDGRLVVDRTADMHLFLIKNVLKEKKSRVWVGLRRTAPHSRTWIWSDGTRQNEDDLNTNLWLRDEPNDAAGEEECALFMYSPWEKAWGLNDYLCRGGCRSYQFICEKGIR
# How the values were obtained:
# Assay in all cases: glycan array binding signal (z-score within array); higher = stronger binding
# Details in all cases: glycan notation: IUPAC condensed, linker removed
# [1] = target: Gal6S(b1-4)Glc6S
# Summary of the method: (§1)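 Columns mapping to the same glycan were averaged after glycan names were converted to IUPAC-condensed notation. The data come from 3228 arrays in the Consortium for Functional Glycomics database, limited to those with an available protein sequence. Binding is reported as a within-array Z-score averaged across arrays of one protein sequence and across linkers.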
# [2] = target: Gal6S(b1-4)GlcNAc
# Summary of the method: as §1
# [3] = target: Gal6S(b1-4)GlcNAc6S
# Summary of the method: as §1
# [4] = target: GalNAc(a1-3)Gal
# Summary of the method: as §1
# [5] = target: GalNAc(a1-3)GalNAc
# Summary of the method: as §1
# [6] = target: GalNAc(a1-3)GalNAc(b1-3)Gal(a1-4)Gal(b1-4)Glc
# Summary of the method: as §1
# [7] = target: GalNAc(a1-3)GalNAc(b1-3)Gal(a1-4)Gal(b1-4)GlcNAc
# Summary of the method: as §1
# [8] = target: GalNAc(b1-3)Gal
# Summary of the method: as §1
# [9] = target: GalNAc(b1-3)Gal(a1-4)Gal(b1-4)GlcNAc
# Summary of the method: as §1
# [10] = target: GalNAc(b1-3)Gal(a1-4)Gal(b1-4)GlcNAc(b1-3)Gal(b1-4)Glc
# Summary of the method: as §1
# [11] = target: GalNAc(b1-3)Gal(a1-6)Gal(b1-4)Glc
# Summary of the method: as §1
# [12] = target: GalNAc(b1-3)GalNAc
# Summary of the method: as §1
# [13] = target: GalNAc(b1-3)GlcNAc
# Summary of the method: as §1
# [14] = target: GalNAc(b1-4)Gal(b1-4)Glc
# Summary of the method: as §1
# [15] = target: GalNAc(b1-4)GlcNAc
# Summary of the method: as §1
# [16] = target: GalNAc(b1-4)GlcNAc(b1-2)Man
# Summary of the method: as §1
# [17] = target: GalNAc(b1-4)GlcNAc(b1-2)Man(a1-3)[GalNAc(b1-4)GlcNAc(b1-2)Man(a1-6)]Man(b1-4)GlcNAc(b1-4)GlcNAc
# Summary of the method: as §1
# [18] = target: GalNAc(b1-4)GlcNAc(b1-3)GalNAc(b1-4)GlcNAc
# Summary of the method: as §1
# [19] = target: GalNAc(b1-4)GlcNAc6S
# Summary of the method: as §1
# [20] = target: GalNAc(b1-6)GalNAc
# Summary of the method: as §1
# [21] = target: GalNAc3S(b1-4)GlcNAc
# Summary of the method: as §1
# [22] = target: GalNAc3S(b1-4)GlcNAc3S
# Summary of the method: as §1
# [23] = target: GalNAc3S(b1-4)[Fuc(a1-3)]GlcNAc
# Summary of the method: as §1
# [24] = target: GalNAc4S6S(b1-4)GlcNAc
# Summary of the method: as §1
# [25] = target: GalNAc6S(b1-4)GlcNAc
# Summary of the method: as §1
# [26] = target: Glc(a1-4)Glc
# Summary of the method: as §1
# [27] = target: Glc(a1-4)Glc(a1-4)Glc(a1-4)Glc
# Summary of the method: as §1
# [28] = target: Glc(a1-6)Glc(a1-6)Glc
# Summary of the method: as §1
# [29] = target: Glc(a1-6)Glc(a1-6)Glc(a1-6)Glc
# Summary of the method: as §1
# [30] = target: Glc(b1-4)Glc
# Summary of the method: as §1
# [31] = target: Glc(b1-6)Glc
# Summary of the method: as §1
# [32] = target: GlcA(b1-3)Gal
# Summary of the method: as §1
# [33] = target: GlcA(b1-3)GlcNAc
# Summary of the method: as §1
# [34] = target: GlcA(b1-6)Gal
# Summary of the method: as §1
# [35] = target: GlcA3S(b1-3)Gal(b1-4)GlcNAc(b1-2)Man
# Summary of the method: as §1
# [36] = target: GlcA3S(b1-3)Gal(b1-4)GlcNAc(b1-3)Gal(b1-4)Glc
# Summary of the method: as §1
# [37] = target: GlcNAc(a1-3)Gal(b1-4)GlcNAc
# Summary of the method: as §1
# [38] = target: GlcNAc(a1-4)Gal(b1-3)GlcNAc
# Summary of the method: as §1
# [39] = target: GlcNAc(a1-4)Gal(b1-4)GalNAc
# Summary of the method: as §1
# [40] = target: GlcNAc(a1-4)Gal(b1-4)GlcNAc
# Summary of the method: as §1
# [41] = target: GlcNAc(a1-4)Gal(b1-4)GlcNAc(b1-3)Gal(b1-4)Glc
# Summary of the method: as §1
# [42] = target: GlcNAc(a1-4)Gal(b1-4)GlcNAc(b1-3)Gal(b1-4)GlcNAc
# Summary of the method: as §1
# [43] = target: GlcNAc(a1-4)Gal(b1-4)GlcNAc(b1-3)Gal(b1-4)GlcNAc(b1-3)Gal(b1-4)GlcNAc
# Summary of the method: as §1
# [44] = target: GlcNAc(a1-4)Gal(b1-4)GlcNAc(b1-3)Gal(b1-4)[Fuc(a1-3)]GlcNAc(b1-3)Gal(b1-4)[Fuc(a1-3)]GlcNAc
# Summary of the method: as §1
# [45] = target: GlcNAc(a1-6)Gal(b1-4)GlcNAc
# Summary of the method: as §1
binder,measurement,setting,value
B1,glycan array binding signal (z-score),[1],0.45
same,glycan array binding signal (z-score),[2],-0.357
same,glycan array binding signal (z-score),[3],-0.12
same,glycan array binding signal (z-score),[4],-0.361
same,glycan array binding signal (z-score),[5],-0.71
same,glycan array binding signal (z-score),[6],-0.539
same,glycan array binding signal (z-score),[7],-0.198
same,glycan array binding signal (z-score),[8],-0.009
same,glycan array binding signal (z-score),[9],-0.287
same,glycan array binding signal (z-score),[10],0.501
same,glycan array binding signal (z-score),[11],-0.499
same,glycan array binding signal (z-score),[12],0.616
same,glycan array binding signal (z-score),[13],0.183
same,glycan array binding signal (z-score),[14],0.777
same,glycan array binding signal (z-score),[15],-0.077
same,glycan array binding signal (z-score),[16],-0.335
same,glycan array binding signal (z-score),[17],-0.174
same,glycan array binding signal (z-score),[18],1.06
same,glycan array binding signal (z-score),[19],4.64
same,glycan array binding signal (z-score),[20],-0.009
same,glycan array binding signal (z-score),[21],0.218
same,glycan array binding signal (z-score),[22],0.017
same,glycan array binding signal (z-score),[23],0.003
same,glycan array binding signal (z-score),[24],-0.786
same,glycan array binding signal (z-score),[25],-0.098
same,glycan array binding signal (z-score),[26],0.102
same,glycan array binding signal (z-score),[27],-0.065
same,glycan array binding signal (z-score),[28],0.555
same,glycan array binding signal (z-score),[29],-0.783
same,glycan array binding signal (z-score),[30],0.418
same,glycan array binding signal (z-score),[31],0.148
same,glycan array binding signal (z-score),[32],-0.454
same,glycan array binding signal (z-score),[33],1.37
same,glycan array binding signal (z-score),[34],-0.375
same,glycan array binding signal (z-score),[35],-0.81
same,glycan array binding signal (z-score),[36],-0.533
same,glycan array binding signal (z-score),[37],0.98
same,glycan array binding signal (z-score),[38],-0.752
same,glycan array binding signal (z-score),[39],0.186
same,glycan array binding signal (z-score),[40],-0.506
same,glycan array binding signal (z-score),[41],-0.806
same,glycan array binding signal (z-score),[42],-0.401
same,glycan array binding signal (z-score),[43],-0.917
same,glycan array binding signal (z-score),[44],-0.315
same,glycan array binding signal (z-score),[45],-0.48

# Reformatted bar-delimited: part of the list above.
binder | measurement | setting | value
B1 | glycan array binding signal (z-score) | [38] | -0.752
same | glycan array binding signal (z-score) | [39] | 0.186
